Experimental data from patent publication US10253109 (BLOODWORKS, dated 2019).
Results are given in words; binding and its absence hold for the method and conditions named. Some results given as binding are weak or reduced against the parent protein; the word gives no strength.

Key:
[1] = target: T1, human Kell glycoprotein, Js^a (KEL6) form (human) (UniProt P23276); assay: flow cytometry, indirect immunofluorescence on Js^a/Js^a RBCs
T1 sequence (looked up): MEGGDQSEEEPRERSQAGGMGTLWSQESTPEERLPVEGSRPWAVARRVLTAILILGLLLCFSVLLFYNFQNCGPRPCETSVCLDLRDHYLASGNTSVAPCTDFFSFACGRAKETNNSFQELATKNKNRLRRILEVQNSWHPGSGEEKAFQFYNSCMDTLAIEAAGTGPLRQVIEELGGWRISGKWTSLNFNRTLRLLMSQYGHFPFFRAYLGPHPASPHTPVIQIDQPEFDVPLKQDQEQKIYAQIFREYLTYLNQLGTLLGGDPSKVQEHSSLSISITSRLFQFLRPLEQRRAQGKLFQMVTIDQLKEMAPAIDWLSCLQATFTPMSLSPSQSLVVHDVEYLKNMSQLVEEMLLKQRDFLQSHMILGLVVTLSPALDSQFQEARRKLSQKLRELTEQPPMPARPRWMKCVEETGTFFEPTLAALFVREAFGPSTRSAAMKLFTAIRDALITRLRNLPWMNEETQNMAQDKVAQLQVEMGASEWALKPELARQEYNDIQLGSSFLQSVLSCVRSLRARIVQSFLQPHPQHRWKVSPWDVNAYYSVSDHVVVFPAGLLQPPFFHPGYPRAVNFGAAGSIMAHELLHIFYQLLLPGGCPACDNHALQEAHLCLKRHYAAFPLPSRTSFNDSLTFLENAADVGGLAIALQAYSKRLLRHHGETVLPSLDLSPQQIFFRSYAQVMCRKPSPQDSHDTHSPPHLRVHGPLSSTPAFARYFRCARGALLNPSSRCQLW

[2] = target: T2, human Kell glycoprotein, Kp^a (KEL3) form (human) (UniProt P23276); assay: flow cytometry, indirect immunofluorescence on Kp^a/Kp^a RBCs
T2 sequence (looked up): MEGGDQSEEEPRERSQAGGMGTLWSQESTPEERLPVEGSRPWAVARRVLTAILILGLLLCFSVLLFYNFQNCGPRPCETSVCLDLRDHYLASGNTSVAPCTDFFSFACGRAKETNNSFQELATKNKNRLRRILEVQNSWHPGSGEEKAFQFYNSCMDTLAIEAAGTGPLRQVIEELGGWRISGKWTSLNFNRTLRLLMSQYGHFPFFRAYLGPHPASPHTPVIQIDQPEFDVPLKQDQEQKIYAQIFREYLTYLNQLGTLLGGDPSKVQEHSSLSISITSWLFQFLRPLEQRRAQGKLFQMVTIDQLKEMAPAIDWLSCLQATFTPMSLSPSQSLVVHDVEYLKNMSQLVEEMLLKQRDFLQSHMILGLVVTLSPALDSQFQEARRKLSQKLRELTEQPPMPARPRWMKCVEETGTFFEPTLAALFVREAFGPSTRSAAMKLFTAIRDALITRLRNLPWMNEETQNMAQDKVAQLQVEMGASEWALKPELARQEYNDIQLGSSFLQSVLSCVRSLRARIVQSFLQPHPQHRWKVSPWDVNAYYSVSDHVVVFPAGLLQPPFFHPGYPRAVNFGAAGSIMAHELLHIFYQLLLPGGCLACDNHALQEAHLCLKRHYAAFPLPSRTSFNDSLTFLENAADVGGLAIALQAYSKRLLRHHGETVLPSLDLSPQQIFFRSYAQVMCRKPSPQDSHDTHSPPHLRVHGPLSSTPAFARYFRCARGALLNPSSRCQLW

binding [1]: binds | binding [2]: binds
B1: monoclonal antibody PUMA 3 (antibody, V domains shown)
VH: QVQLKESGPGLLAPSQSLSITCTVSGFSLTSYGVYWVRQPPGKGLEWLGIIWGDGSTNYQSVLRSRLSITKDDSKSQVFLKLNSLQTDDTATYYCAKRGDYDVAYWGQGTLVTVSA
VL: DIVLTQSPASLAVSLGQRAIISCKASQTVSEVGTSLMHWYQQRPGQQPKLLIYRTSNLEAGVPTRFSGSGSRTDFTLNIHPVEEDDAATYYCQQSREFPWTFGGGTRLEIK
notes: Mouse monoclonal antibody from hybridoma
